Reference: patent US20080293796A1, “Parenteral and oral formulations of benzimidazoles” (priority 2003, published 2008)

Assay: Homogeneity study of Mbz distribution in rat organs
Conditions: for Site Variations: n = 3; for Mean radioactivity: three sites

With COC(=O)Nc1nc2ccc(C(=O)c3ccccc3)cc2[nH]1 [MZ, methyl 5-benzoylbenzimidazole-2-carbamate] the “Site Variations” value (rat brain) was 7.96%, the Mean radioactivity (rat brain) was 358.27 CPM/0.2 g and the “Site Variations” value (rat heart) was 14.02%. The Mean radioactivity (rat heart) was 1300.72 CPM/0.2 g, the “Site Variations” value (rat kidneys) was 3.01% and the Mean radioactivity (rat kidneys) was 1192.13 CPM/0.2 g. The “Site Variations” value (rat liver) was 3.44%, the Mean radioactivity (rat liver) was 41978.90 CPM/0.2 g and the “Site Variations” value (rat lung) was 5.67%. The Mean radioactivity (rat lung) was 22429.33 CPM/0.2 g, the “Site Variations” value (rat spleen) was 5.15% and the Mean radioactivity (rat spleen) was 31279.43 CPM/0.2 g.
